The record followed here is publication PMC12701074.

Chains of the proteins cited; added tags and fusions are not shown.
UniProt P41091: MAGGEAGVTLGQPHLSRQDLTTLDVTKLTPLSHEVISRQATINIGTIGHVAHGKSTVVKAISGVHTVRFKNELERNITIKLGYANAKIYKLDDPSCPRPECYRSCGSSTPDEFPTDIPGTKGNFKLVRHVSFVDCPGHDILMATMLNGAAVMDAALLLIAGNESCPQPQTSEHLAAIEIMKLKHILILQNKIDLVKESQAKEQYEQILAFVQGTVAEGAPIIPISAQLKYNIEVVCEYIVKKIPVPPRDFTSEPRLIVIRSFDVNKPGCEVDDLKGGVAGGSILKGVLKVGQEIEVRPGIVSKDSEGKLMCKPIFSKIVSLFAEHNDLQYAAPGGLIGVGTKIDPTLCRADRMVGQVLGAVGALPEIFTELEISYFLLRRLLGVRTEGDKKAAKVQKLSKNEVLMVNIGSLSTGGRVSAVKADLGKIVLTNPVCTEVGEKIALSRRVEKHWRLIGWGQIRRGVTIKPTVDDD
UniProt P26641: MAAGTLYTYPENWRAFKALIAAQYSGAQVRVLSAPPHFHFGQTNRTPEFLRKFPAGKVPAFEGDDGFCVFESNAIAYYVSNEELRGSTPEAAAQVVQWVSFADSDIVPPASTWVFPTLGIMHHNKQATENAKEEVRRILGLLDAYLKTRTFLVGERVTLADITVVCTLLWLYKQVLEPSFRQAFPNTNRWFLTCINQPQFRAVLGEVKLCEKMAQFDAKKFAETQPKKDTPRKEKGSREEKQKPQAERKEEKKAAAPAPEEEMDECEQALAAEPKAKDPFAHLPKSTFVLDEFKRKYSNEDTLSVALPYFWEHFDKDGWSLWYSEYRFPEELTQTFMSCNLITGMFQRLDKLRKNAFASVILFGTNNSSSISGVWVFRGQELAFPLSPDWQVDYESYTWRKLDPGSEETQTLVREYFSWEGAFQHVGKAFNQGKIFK
UniProt P07355: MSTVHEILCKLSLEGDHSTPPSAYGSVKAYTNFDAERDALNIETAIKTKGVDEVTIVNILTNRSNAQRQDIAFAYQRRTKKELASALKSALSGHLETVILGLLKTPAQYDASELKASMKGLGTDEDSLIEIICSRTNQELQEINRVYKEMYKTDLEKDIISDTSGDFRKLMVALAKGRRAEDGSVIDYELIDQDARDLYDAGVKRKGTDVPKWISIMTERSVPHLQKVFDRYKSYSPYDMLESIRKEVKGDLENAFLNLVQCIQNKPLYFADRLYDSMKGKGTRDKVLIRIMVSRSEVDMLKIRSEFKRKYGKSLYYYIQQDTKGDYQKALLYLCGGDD
UniProt P29692: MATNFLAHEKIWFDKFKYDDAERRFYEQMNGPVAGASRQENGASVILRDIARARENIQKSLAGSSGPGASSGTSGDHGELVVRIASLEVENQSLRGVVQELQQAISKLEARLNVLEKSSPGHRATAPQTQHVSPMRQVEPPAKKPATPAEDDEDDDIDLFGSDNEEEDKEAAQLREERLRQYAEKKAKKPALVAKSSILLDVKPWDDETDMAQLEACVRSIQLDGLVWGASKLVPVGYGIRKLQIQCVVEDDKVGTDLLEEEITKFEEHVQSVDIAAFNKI
UniProt O75794: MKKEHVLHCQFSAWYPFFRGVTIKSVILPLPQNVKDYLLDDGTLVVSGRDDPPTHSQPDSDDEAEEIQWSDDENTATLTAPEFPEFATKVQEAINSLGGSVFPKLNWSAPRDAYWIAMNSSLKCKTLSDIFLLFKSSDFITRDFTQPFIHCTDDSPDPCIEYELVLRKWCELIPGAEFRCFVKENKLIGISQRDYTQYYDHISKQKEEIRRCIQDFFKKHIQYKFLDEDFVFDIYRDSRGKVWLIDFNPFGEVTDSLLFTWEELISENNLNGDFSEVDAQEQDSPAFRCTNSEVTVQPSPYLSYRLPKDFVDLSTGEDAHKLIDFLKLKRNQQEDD
UniProt P68104: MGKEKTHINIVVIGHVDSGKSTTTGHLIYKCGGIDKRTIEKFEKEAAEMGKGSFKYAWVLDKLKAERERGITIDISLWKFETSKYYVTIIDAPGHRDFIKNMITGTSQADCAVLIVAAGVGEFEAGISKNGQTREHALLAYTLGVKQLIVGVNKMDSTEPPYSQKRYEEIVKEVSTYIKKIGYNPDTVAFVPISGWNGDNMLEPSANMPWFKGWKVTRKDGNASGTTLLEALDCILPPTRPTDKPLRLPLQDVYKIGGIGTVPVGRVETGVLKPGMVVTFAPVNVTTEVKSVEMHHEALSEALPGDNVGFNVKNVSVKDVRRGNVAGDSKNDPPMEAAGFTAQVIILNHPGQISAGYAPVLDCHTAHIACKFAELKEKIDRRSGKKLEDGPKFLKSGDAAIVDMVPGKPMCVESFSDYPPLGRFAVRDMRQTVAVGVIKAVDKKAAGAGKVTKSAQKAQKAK
UniProt P60903: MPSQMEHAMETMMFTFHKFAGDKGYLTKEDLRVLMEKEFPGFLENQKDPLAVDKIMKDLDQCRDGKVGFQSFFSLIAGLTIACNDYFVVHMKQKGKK

Holding throughout (test): cross-linking; in vivo cross-linking of intact HEK 293 cells in PBS with 2 mM SIA, 1 mM SIAB or 2 mM SBAP (lysine-cysteine linkers), 30 min, 37 °C (room temperature for SIAB); cross-linked peptides oxidised and identified by LC-MSn and stepped-HCD MS2
The target of experiment [1] is EIF2S3 (human (endogenous in HEK 293)) (UniProt P41091).
The target of another experiment is T1, eEF1B2 (human) (UniProt P24534).
T1 sequence: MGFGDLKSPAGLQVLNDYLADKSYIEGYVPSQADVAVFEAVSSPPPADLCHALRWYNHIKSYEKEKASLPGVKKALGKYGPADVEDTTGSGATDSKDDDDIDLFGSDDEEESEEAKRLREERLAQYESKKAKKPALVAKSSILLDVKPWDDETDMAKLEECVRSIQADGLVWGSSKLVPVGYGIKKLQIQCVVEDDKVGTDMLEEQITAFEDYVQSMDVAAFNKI

The next experiment has as its target eEF1G (human) (UniProt P26641).
The target in experiment [2] is ANXA2 (human (endogenous in HEK 293)) (UniProt P07355).
In experiment [3] the target is eEF1D (human) (UniProt P29692).
For experiment [4], the target named is eEF1D (human) (UniProt P29692). This is another data set of the same source.

Read-outs that look alike come from different tables or passages of the source. These are yes or no findings as the source states them, for the method shown. Binding seen in cells or lysates may run through a third protein. Some binding calls cover weakened binding; strength is not graded here.

Take CDC123 (from UniProt O75794 1-336): the binding entry in experiment [1] was “binds”.

Regarding eEF1A1 (from UniProt P68104 1-462), the binding entry in the experiment with eEF1B2 (human) and with eEF1G (human) was “binds” each time.

Consider S100A10 (from UniProt P60903 1-97), for which the binding result in experiment [2] was “binds”.

eEF1G (from UniProt P26641 1-437): the binding result in the experiment with eEF1B2 (human) and in the experiment with eEF1D (human) [3] was “binds” throughout.

B1: eEF1B2 (protein, UniProt P24534 1-225)
chain: T1 sequence
As to B1, in the experiment with eEF1D (human) [4], the binding result is listed as “binds”.
